From patent US20220041752A1 (Bayer, published 2022)
These are yes or no findings as the source states them, for the method shown. Some entries that bind do so weakly or less than the wild type.

Protein sequences, listed by entry. Tags and fused reporters are not part of them. Lines headed by an entry give the natural chain unless they say otherwise; changes in a name come on top.
UniProt P10646: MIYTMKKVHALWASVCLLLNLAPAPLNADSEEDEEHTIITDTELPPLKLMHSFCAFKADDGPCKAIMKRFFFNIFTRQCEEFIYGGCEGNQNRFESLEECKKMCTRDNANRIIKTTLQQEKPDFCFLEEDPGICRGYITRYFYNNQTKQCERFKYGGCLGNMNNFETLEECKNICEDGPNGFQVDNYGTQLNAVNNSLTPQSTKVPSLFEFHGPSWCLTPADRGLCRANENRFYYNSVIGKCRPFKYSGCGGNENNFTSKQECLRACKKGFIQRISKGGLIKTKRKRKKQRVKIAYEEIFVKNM

What was measured:
[1] = molecular target: TFPI Kunitz domain 1+2 (Asp1 to Phe154) (human) (UniProt P10646); test: X-ray co-crystal structure
[2] = molecular target: TFPI Kunitz domain 1+2 (Asp1 to Phe154) (human) (UniProt P10646); test: analytical size exclusion chromatography (S75 5/150, 100 mM Tris HCl pH 7.5), absorbance in mAU against elution volume in ml
[3] = molecular target: TFPI Kunitz domain 1+2 (Asp1 to Phe154) (human) (UniProt P10646); test: analytical SEC and western blot
[4] = molecular target: TFPI Kunitz domain 1+2 (Asp1 to Phe154) (human) (UniProt P10646); test: SEC and western blot of purified TFPI Kunitz domain 1+2
[5] = molecular target: TFPI Kunitz domain 1+2 (Asp1 to Phe154) (human) (UniProt P10646); test: analytical size exclusion chromatography (S75 5/150)
[6] = molecular target: TFPI Kunitz domain 1+2 (Asp1 to Phe154) (human) (UniProt P10646); test: analytical size exclusion chromatography

- binding [1]: binds
- binding [2]: binds
- binding [3]: binds
- binding [4]: binds
- binding [5]: binds
- binding [6]: binds
B1: Fab B (Fab, V domains shown)
VH: QVELVESGGGLVQPGGSLRLSCAASGFTFRSYGMSWVRQAPGKGLEWVSSIRGSSSSTYYADSVKGRFTISRDNSKNTLYLQMNSLRAEDTAVYYCARLYRYWFDYWGQGTLVTVSS
VL: DIELTQPPSVSVAPGQTARISCSGDNLRNYYAHWYQQKPGQAPVVVIYYDNNRPSGIPERFSGSNSGNTATLTISGTQAEDEADYYCQSWDDGVPVFGGGTKLTVLG
notes: also called monoclonal TFPI antibody Fab B
